Consider two compounds from ChEMBL document CHEMBL3774357, “Discovery of potent and selective CDK8 inhibitors from an HSP90 pharmacophore” (Bioorg Med Chem Lett, 2016).

This series in a line: physchem.

In brackets after ≈: the same amount, converted by molar mass. Where only a bound is given, the exact number is not on record here.

Broadly, the kinetic solubility is the concentration staying in solution when a stock, usually in DMSO, is diluted into the medium.

Compound `Cn1ncc2cc(Cc3n[nH]c4ccc(C(=O)N5CC(O)C5)cc34)ccc21` registered a kinetic solubility of more than 200 µM.
Compound `Cn1cc(-c2ccc(Cc3n[nH]c4ccc(C(=O)N5CCCC5)cc34)cc2)cn1` displayed a kinetic solubility of 164 µM (≈ 63.2 µg/mL).
